The mice bore no tumour; each value counts animals alive of those treated. Survivors were counted at the toxicity check, usually on the fifth day, unless a day is given; later deaths do not show. Schedules are NCI's codes, read here as Q, the interval in days (D) or hours (H), X, the number of doses.
System: CD2F1 mice, nontumored, toxicity/survival
Test: NCI In Vivo Anticancer Drug Screen. Data for tumor model Nontumored Animals (Toxicity Test) in CD2F1 (CDF1) mice

Structure (SMILES): CCN(CC)CCNc1ccc(CO)c2sc3ccccc3c(=O)c12
- survivor count (dose: 4.0 mg/kg/injection, schedule: Q03HX008 (ip), vehicle: saline): 8 of 8
- survivor count (dose: 4.0 mg/kg/injection, schedule: Q03HX016 (ip), vehicle: saline): 8 of 8
- survivor count (dose: 4.0 mg/kg/injection, schedule: Q03HX024 (ip), vehicle: saline): 8 of 8
- survivor count (dose: 8.0 mg/kg/injection, schedule: Q03HX008 (ip), vehicle: saline): 8 of 8
- survivor count (dose: 8.0 mg/kg/injection, schedule: Q03HX016 (ip), vehicle: saline): 8 of 8
- survivor count (dose: 8.0 mg/kg/injection, schedule: Q03HX024 (ip), vehicle: saline): 8 of 8
- survivor count (dose: 16.0 mg/kg/injection, schedule: Q01DX009 (ip), vehicle: saline): 8 of 8
- survivor count (dose: 16.0 mg/kg/injection, schedule: Q01DX009 (sc), vehicle: saline): 8 of 8
- survivor count (dose: 16.0 mg/kg/injection, schedule: Q03HX008 (ip), vehicle: saline): 8 of 8
- survivor count (dose: 16.0 mg/kg/injection, schedule: Q03HX016 (ip), vehicle: saline): 8 of 8
- survivor count (dose: 16.0 mg/kg/injection, schedule: Q03HX024 (ip), vehicle: saline): 8 of 8
- survivor count (dose: 32.0 mg/kg/injection, schedule: Q01DX001 (ip), vehicle: saline): 8 of 8
- survivor count (dose: 32.0 mg/kg/injection, schedule: Q01DX001 (sc), vehicle: saline): 8 of 8
- survivor count (dose: 32.0 mg/kg/injection, schedule: Q01DX009 (ip), vehicle: saline): 8 of 8
- survivor count (dose: 32.0 mg/kg/injection, schedule: Q01DX009 (sc), vehicle: saline): 8 of 8
- survivor count (dose: 32.0 mg/kg/injection, schedule: Q03HX008 (ip), vehicle: saline): 8 of 8
- survivor count (dose: 32.0 mg/kg/injection, schedule: Q03HX016 (ip), vehicle: saline): 7 of 8
- survivor count (dose: 32.0 mg/kg/injection, schedule: Q03HX024 (ip), vehicle: saline): 8 of 8
- survivor count (dose: 32.0 mg/kg/injection, schedule: Q04DX003 (ip), vehicle: saline): 8 of 8
- survivor count (dose: 32.0 mg/kg/injection, schedule: Q08DX002 (ip), vehicle: saline): 8 of 8
- survivor count (dose: 64.0 mg/kg/injection, schedule: Q01DX001 (ip), vehicle: saline): 8 of 8
- survivor count (dose: 64.0 mg/kg/injection, schedule: Q01DX001 (sc), vehicle: saline): 8 of 8
- survivor count (dose: 64.0 mg/kg/injection, schedule: Q01DX009 (ip), vehicle: saline): 7 of 8
- survivor count (dose: 64.0 mg/kg/injection, schedule: Q01DX009 (oral), vehicle: saline): 8 of 8
- survivor count (dose: 64.0 mg/kg/injection, schedule: Q01DX009 (sc), vehicle: saline): 8 of 8
- survivor count (dose: 64.0 mg/kg/injection, schedule: Q03HX008 (ip), vehicle: saline): 8 of 8
- survivor count (dose: 64.0 mg/kg/injection, schedule: Q03HX016 (ip), vehicle: saline): 8 of 8
- survivor count (dose: 64.0 mg/kg/injection, schedule: Q03HX024 (ip), vehicle: saline): 7 of 8
- survivor count (dose: 64.0 mg/kg/injection, schedule: Q04DX003 (ip), vehicle: saline): 8 of 8
- survivor count (dose: 64.0 mg/kg/injection, schedule: Q08DX002 (ip), vehicle: saline): 8 of 8
- survivor count (dose: 128.0 mg/kg/injection, schedule: Q01DX001 (ip), vehicle: saline): 8 of 8
- survivor count (dose: 128.0 mg/kg/injection, schedule: Q01DX001 (sc), vehicle: saline): 8 of 8
- survivor count (dose: 128.0 mg/kg/injection, schedule: Q01DX009 (ip), vehicle: saline): 8 of 8
- survivor count (dose: 128.0 mg/kg/injection, schedule: Q01DX009 (oral), vehicle: saline): 8 of 8
- survivor count (dose: 128.0 mg/kg/injection, schedule: Q01DX009 (sc), vehicle: saline): 8 of 8
- survivor count (dose: 128.0 mg/kg/injection, schedule: Q04DX003 (ip), vehicle: saline): 8 of 8
- survivor count (dose: 128.0 mg/kg/injection, schedule: Q08DX002 (ip), vehicle: saline): 8 of 8
- survivor count (dose: 256.0 mg/kg/injection, schedule: Q01DX001 (ip), vehicle: saline): 8 of 8
- survivor count (dose: 256.0 mg/kg/injection, schedule: Q01DX001 (oral), vehicle: saline): 8 of 8
- survivor count (dose: 256.0 mg/kg/injection, schedule: Q01DX001 (sc), vehicle: saline): 8 of 8
- survivor count (dose: 256.0 mg/kg/injection, schedule: Q01DX009 (ip), vehicle: saline): 0 of 8
- survivor count (dose: 256.0 mg/kg/injection, schedule: Q01DX009 (oral), vehicle: saline): 7 of 8
- survivor count (dose: 256.0 mg/kg/injection, schedule: Q01DX009 (sc), vehicle: saline): 1 of 8
- survivor count (dose: 256.0 mg/kg/injection, schedule: Q04DX003 (ip), vehicle: saline): 5 of 8
- survivor count (dose: 256.0 mg/kg/injection, schedule: Q08DX002 (ip), vehicle: saline): 7 of 8
- survivor count (dose: 512.0 mg/kg/injection, schedule: Q01DX001 (ip), vehicle: saline): 0 of 8
- survivor count (dose: 512.0 mg/kg/injection, schedule: Q01DX001 (oral), vehicle: saline): 7 of 8
- survivor count (dose: 512.0 mg/kg/injection, schedule: Q01DX001 (sc), vehicle: saline): 8 of 8
- survivor count (dose: 512.0 mg/kg/injection, schedule: Q01DX009 (oral), vehicle: saline): 3 of 8
- survivor count (dose: 512.0 mg/kg/injection, schedule: Q04DX003 (ip), vehicle: saline): 0 of 8
- survivor count (dose: 512.0 mg/kg/injection, schedule: Q08DX002 (ip), vehicle: saline): 0 of 8
- survivor count (dose: 1024.0 mg/kg/injection, schedule: Q01DX001 (oral), vehicle: saline): 8 of 8
- survivor count (dose: 1024.0 mg/kg/injection, schedule: Q01DX009 (oral), vehicle: saline): 0 of 8
- survivor count (dose: 2048.0 mg/kg/injection, schedule: Q01DX001 (oral), vehicle: saline): 4 of 8

Structure (SMILES): CNc1nc(N(C)C)nc(N(C)C)n1
- survivor count (dose: 16.0 mg/kg/injection, schedule: Q03HX008 (ip), vehicle: water): 8 of 8
- survivor count (dose: 16.0 mg/kg/injection, schedule: Q03HX016 (ip), vehicle: water): 8 of 8
- survivor count (dose: 16.0 mg/kg/injection, schedule: Q03HX024 (ip), vehicle: water): 8 of 8
- survivor count (dose: 32.0 mg/kg/injection, schedule: Q01DX005 (ip), vehicle: water): 8 of 8
- survivor count (dose: 32.0 mg/kg/injection, schedule: Q01DX005 (iv), vehicle: water): 1 of 8
- survivor count (dose: 32.0 mg/kg/injection, schedule: Q01DX009 (ip), vehicle: water): 8 of 8
- survivor count (dose: 32.0 mg/kg/injection, schedule: Q01DX009 (oral), vehicle: water): 8 of 8
- survivor count (dose: 32.0 mg/kg/injection, schedule: Q01DX009 (sc), vehicle: water): 8 of 8
- survivor count (dose: 32.0 mg/kg/injection, schedule: Q03HX008 (ip), vehicle: water): 8 of 8
- survivor count (dose: 32.0 mg/kg/injection, schedule: Q03HX016 (ip), vehicle: water): 8 of 8
- survivor count (dose: 32.0 mg/kg/injection, schedule: Q03HX024 (ip), vehicle: water): 8 of 8
- survivor count (dose: 64.0 mg/kg/injection, schedule: Q01DX001 (ip), vehicle: water): 8 of 8
- survivor count (dose: 64.0 mg/kg/injection, schedule: Q01DX001 (oral), vehicle: water): 8 of 8
- survivor count (dose: 64.0 mg/kg/injection, schedule: Q01DX005 (ip), vehicle: water): 8 of 8
- survivor count (dose: 64.0 mg/kg/injection, schedule: Q01DX005 (iv), vehicle: water): 2 of 8
- survivor count (dose: 64.0 mg/kg/injection, schedule: Q01DX009 (ip), vehicle: water): 8 of 8
- survivor count (dose: 64.0 mg/kg/injection, schedule: Q01DX009 (oral), vehicle: water): 8 of 8
- survivor count (dose: 64.0 mg/kg/injection, schedule: Q01DX009 (sc), vehicle: water): 8 of 8
- survivor count (dose: 64.0 mg/kg/injection, schedule: Q03HX008 (ip), vehicle: water): 8 of 8
- survivor count (dose: 64.0 mg/kg/injection, schedule: Q03HX016 (ip), vehicle: water): 8 of 8
- survivor count (dose: 64.0 mg/kg/injection, schedule: Q03HX024 (ip), vehicle: water): 8 of 8
- survivor count (dose: 64.0 mg/kg/injection, schedule: Q04DX003 (ip), vehicle: water): 8 of 8
- survivor count (dose: 64.0 mg/kg/injection, schedule: Q08DX002 (ip), vehicle: water): 8 of 8
- survivor count (dose: 128.0 mg/kg/injection, schedule: Q01DX001 (ip), vehicle: water): 8 of 8
- survivor count (dose: 128.0 mg/kg/injection, schedule: Q01DX001 (oral), vehicle: water): 8 of 8
- survivor count (dose: 128.0 mg/kg/injection, schedule: Q01DX005 (ip), vehicle: water): 8 of 8
- survivor count (dose: 128.0 mg/kg/injection, schedule: Q01DX005 (iv), vehicle: water): 1 of 8
- survivor count (dose: 128.0 mg/kg/injection, schedule: Q01DX009 (ip), vehicle: water): 7 of 8
- survivor count (dose: 128.0 mg/kg/injection, schedule: Q01DX009 (oral), vehicle: water): 8 of 8
- survivor count (dose: 128.0 mg/kg/injection, schedule: Q01DX009 (sc), vehicle: water): 8 of 8
- survivor count (dose: 128.0 mg/kg/injection, schedule: Q03HX008 (ip), vehicle: water): 7 of 8
- survivor count (dose: 128.0 mg/kg/injection, schedule: Q03HX016 (ip), vehicle: water): 6 of 8
- survivor count (dose: 128.0 mg/kg/injection, schedule: Q03HX024 (ip), vehicle: water): 7 of 8
- survivor count (dose: 128.0 mg/kg/injection, schedule: Q04DX003 (ip), vehicle: water): 8 of 8
- survivor count (dose: 128.0 mg/kg/injection, schedule: Q08DX002 (ip), vehicle: water): 8 of 8
- survivor count (dose: 256.0 mg/kg/injection, schedule: Q01DX001 (ip), vehicle: water): 8 of 8
- survivor count (dose: 256.0 mg/kg/injection, schedule: Q01DX001 (oral), vehicle: water): 8 of 8
- survivor count (dose: 256.0 mg/kg/injection, schedule: Q01DX005 (ip), vehicle: water): 5 of 8
- survivor count (dose: 256.0 mg/kg/injection, schedule: Q01DX005 (iv), vehicle: water): 0 of 8
- survivor count (dose: 256.0 mg/kg/injection, schedule: Q01DX009 (ip), vehicle: water): 7 of 8
- survivor count (dose: 256.0 mg/kg/injection, schedule: Q01DX009 (oral), vehicle: water): 8 of 8
- survivor count (dose: 256.0 mg/kg/injection, schedule: Q01DX009 (sc), vehicle: water): 7 of 8
- survivor count (dose: 256.0 mg/kg/injection, schedule: Q04DX003 (ip), vehicle: water): 8 of 8
- survivor count (dose: 256.0 mg/kg/injection, schedule: Q08DX002 (ip), vehicle: water): 8 of 8
- survivor count (dose: 512.0 mg/kg/injection, schedule: Q01DX001 (ip), vehicle: water): 6 of 8
- survivor count (dose: 512.0 mg/kg/injection, schedule: Q01DX001 (oral), vehicle: water): 8 of 8
- survivor count (dose: 512.0 mg/kg/injection, schedule: Q04DX003 (ip), vehicle: water): 3 of 8
- survivor count (dose: 512.0 mg/kg/injection, schedule: Q08DX002 (ip), vehicle: water): 2 of 8

Structure (SMILES): Nc1nccc(NCC(O)c2ccccc2)n1 (stereo not given)
- survivor count (dose: 1.0 mg/kg/injection, schedule: Q01DX001 (ip), vehicle: water): 2 of 2
- survivor count (dose: 10.0 mg/kg/injection, schedule: Q01DX001 (ip), vehicle: water): 2 of 2
- survivor count (dose: 100.0 mg/kg/injection, schedule: Q01DX001 (ip), vehicle: water): 2 of 2
